Experimental data from paper PMC11265165.
No constants are given. Whether binding was seen depends on the method and setting. In cells and extracts the contact can be indirect. Some results given as binding are weak or reduced against the parent protein; the word gives no strength.

Protein sequences, listed by entry. Tags and fused reporters are not part of them. Residues count along the entry.
UniProt O43699, residues 27-453: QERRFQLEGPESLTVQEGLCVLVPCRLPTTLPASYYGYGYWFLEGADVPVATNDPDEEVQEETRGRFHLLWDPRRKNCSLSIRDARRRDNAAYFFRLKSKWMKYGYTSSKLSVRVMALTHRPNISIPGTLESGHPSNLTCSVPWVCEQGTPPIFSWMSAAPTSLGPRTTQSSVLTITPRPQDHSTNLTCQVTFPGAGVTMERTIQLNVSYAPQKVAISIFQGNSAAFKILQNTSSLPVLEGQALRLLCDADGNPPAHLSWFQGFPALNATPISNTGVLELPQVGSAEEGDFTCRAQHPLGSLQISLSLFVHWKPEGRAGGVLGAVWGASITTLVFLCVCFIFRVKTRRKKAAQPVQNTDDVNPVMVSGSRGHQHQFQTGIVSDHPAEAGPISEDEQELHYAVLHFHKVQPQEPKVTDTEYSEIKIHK
UniProt P29350: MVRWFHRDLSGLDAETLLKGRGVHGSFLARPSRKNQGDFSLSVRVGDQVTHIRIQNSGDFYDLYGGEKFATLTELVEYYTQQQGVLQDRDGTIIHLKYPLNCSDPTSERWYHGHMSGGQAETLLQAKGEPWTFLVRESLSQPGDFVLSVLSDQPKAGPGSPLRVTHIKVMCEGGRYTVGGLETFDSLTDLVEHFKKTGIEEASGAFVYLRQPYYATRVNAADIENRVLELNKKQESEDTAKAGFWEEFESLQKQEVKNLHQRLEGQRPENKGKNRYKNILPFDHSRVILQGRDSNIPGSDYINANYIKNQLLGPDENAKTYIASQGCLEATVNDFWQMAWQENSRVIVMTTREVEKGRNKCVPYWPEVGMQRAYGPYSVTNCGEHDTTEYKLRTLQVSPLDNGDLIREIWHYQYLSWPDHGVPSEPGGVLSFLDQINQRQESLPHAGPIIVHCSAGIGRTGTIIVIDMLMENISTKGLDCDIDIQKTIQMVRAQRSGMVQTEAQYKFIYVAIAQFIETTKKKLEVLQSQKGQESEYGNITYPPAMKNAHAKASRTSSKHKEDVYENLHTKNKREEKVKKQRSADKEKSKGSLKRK

Target: Flag-tagged Siglec-6 (human) (UniProt O43699)
Assay: co-IP; HTR-8/SVneo cells with Flag-tagged Siglec-6, lysed in IP lysis buffer; lysates incubated with anti-flag, anti-SHP1 or anti-SHP2 antibodies overnight at 4 °C, protein A/G beads, washed five times, Western blot

binding: binds
Substance: SHP1 (from UniProt P29350 1-595) (enzyme)
